Measurements published in article PMC7442491.

Protein sequences, listed by entry. Tags and fused reporters are not part of them. Residues count along the entry.
UniProt O75251, residues 39-213: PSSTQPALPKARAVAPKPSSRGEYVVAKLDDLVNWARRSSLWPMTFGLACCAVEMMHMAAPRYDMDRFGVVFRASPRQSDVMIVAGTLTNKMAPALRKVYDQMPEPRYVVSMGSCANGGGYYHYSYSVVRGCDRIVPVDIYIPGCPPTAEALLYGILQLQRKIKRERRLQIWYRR

Target: T1, human ALKBH7 C-terminal 3xFLAG tag fusion protein (human) (UniProt Q9BT30)
T1 sequence: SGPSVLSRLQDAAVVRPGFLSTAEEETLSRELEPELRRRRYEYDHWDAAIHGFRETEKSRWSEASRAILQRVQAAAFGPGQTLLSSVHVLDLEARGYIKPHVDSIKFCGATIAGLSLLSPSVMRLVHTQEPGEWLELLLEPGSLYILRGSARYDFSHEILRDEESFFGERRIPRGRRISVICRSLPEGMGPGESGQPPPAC
Test: affinity purification with mass spectrometry; ALKBH7-3xFLAG from transfected HEK 293T whole-cell extract held on FLAG M2 antibody resin, 2 hr at 4°C, 150 mM NaCl, 20 mM HEPES, 0.1% NP-40, pH 7.9; eluted with 3xFLAG peptide; SDS-PAGE bands cut and identified by LC-MS/MS; baseline or MMS-treated …; proteins of the vector-only control eliminated

NDUFS7 subunit of respiratory complex I (from UniProt O75251 39-213)
binding: binds

No constants are given. Whether binding was seen depends on the method and setting. Binding seen in cells or lysates may run through a third protein. These calls come from enrichment with a bait or labelling near it, and not all partners need be listed. Where a sequence is shown, tags or fusion partners need not be part of it.
